The target in experiment [1] is Flag-ITCH (E3 ubiquitin ligase ITCH) (UniProt Q96J02). Put plainly: co-IP; HCT116 cells co-transfected with Flag-ITCH, Myc-RIPK2 and EGFP-YAP plasmids; unstimulated, or stimulated with MDP for 0, 1 and 2 h; equal amounts of protein loaded.
Experiment [2] concerns the target ITCH (co-IP with YAP in control and RIPK2-KO HCT116 cells; construct not stated) (UniProt Q96J02). Put plainly: co-IP; ITCH and YAP in HCT116 cells before and after RIPK2 knockout (CRISPR/Cas9).

Amino acid sequences for entries named in this document (tags omitted).
UniProt Q96J02: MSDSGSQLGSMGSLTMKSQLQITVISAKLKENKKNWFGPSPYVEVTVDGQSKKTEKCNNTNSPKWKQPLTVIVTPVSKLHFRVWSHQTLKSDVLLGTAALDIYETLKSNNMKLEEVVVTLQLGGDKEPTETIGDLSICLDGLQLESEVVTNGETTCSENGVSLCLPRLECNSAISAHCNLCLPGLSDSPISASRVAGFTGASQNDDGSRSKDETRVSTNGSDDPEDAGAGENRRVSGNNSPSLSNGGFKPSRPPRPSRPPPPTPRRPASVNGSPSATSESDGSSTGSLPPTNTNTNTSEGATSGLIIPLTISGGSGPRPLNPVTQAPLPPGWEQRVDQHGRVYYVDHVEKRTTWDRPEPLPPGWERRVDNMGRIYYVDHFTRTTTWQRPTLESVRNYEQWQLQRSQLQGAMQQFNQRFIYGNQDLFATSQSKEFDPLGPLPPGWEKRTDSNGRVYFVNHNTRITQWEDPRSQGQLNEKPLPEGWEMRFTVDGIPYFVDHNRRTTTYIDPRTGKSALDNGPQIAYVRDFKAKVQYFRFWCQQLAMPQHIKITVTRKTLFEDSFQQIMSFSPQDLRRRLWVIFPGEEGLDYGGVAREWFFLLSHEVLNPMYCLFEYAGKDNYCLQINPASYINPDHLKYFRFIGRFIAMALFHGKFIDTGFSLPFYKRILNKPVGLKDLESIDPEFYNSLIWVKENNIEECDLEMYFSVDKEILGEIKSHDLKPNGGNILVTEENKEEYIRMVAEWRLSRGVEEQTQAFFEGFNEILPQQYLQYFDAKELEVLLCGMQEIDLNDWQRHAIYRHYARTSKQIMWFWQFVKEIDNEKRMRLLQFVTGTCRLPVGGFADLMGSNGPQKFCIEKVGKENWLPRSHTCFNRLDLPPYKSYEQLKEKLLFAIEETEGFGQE
UniProt O43353: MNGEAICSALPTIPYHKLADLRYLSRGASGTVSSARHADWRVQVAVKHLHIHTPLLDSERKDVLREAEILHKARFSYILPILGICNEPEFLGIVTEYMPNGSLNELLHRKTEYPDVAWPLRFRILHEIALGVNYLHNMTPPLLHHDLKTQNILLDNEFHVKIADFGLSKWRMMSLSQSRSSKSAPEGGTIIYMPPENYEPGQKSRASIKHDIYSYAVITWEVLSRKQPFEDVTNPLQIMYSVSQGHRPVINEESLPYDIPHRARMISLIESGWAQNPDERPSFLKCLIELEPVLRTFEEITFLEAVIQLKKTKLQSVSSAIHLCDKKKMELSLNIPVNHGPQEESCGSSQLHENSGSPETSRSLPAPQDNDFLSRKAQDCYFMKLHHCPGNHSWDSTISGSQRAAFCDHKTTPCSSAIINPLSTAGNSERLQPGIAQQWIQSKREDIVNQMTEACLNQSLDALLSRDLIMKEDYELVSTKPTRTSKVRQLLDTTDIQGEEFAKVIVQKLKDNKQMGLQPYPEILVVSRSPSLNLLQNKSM

No constants are given. Whether binding was seen depends on the method and setting. Binding seen in cells or lysates may run through a third protein. Some results given as binding are weak or reduced against the parent protein; the word gives no strength.

With EGFP-YAP (from UniProt P46937 1-504), in experiment [1], the binding entry is given as “binds”. For “YAP (co-IPs in SW480 and HCT116 cells; construct not stated) (from UniProt P46937 1-504)”, in experiment [2], the binding result is on record as “binds”. As for “Myc-RIPK2 (receptor-interacting protein kinase 2) (from UniProt O43353 1-540) (enzyme)”, the binding result in experiment [1] is “binds”.

These data come from publication PMC11971272.
